The list shows only some results of the screen, not a fair sample: it gathers tests that were run many times, whatever their T/C, doses with no T/C, and many T/C values between a quarter and a half above the control. Further doses and runs are listed elsewhere. T/C gives the treated animals as a percentage of the vehicle group. Some entries give survivors of the animals treated and no T/C: the source files T/C as zero there, which appears to mark a toxic dose or a test without result, not a measured value. Some doses without a T/C left all or most animals alive at the check, yet need not have been tolerated: the source hardly ever lists a survival T/C far under the control, and the zero likely stands for such cases as well. Survivors were counted at the toxicity check, usually on the fifth day, unless a day is given; later deaths do not show. Schedules are NCI's codes, read here as Q, the interval in days (D) or hours (H), X, the number of doses. Some schedule codes hold Z or #, which are not explained here. Where survival is the endpoint, the PubChem record calls one and a half times the control and up active, and a quarter to a half above the control has no call in these data; cut-offs in other NCI protocols can differ. Some entries hold several experiments; their values stand side by side, smallest first.
Test system: L1210 leukemia ip in BDF1 mice, survival T/C
Assay: NCI In Vivo Anticancer Drug Screen. Data for tumor model L1210 Leukemia (intraperitoneal) in B6D2F1 (BDF1) mice
Conditions: T/C endpoint: mean survival time, higher T/C = longer survival
[1] = dose: 100.0 mg/kg/injection, schedule: Q04DX003 (ip), vehicle: saline
[2] = dose: 200.0 mg/kg/injection, schedule: Q04DX003 (ip), vehicle: saline
[3] = dose: 400.0 mg/kg/injection, schedule: Q04DX003 (ip), vehicle: saline
[4] = dose: 100.0 mg/kg/injection, schedule: Q01DX009 (ip), vehicle: saline
[5] = dose: 400.0 mg/kg/injection, schedule: Q04DX003 (ip), vehicle: saline with Tween-80
[6] = dose: 400.0 mg/kg/injection, schedule: Q01DX009 (ip), vehicle: saline with Tween-80
[7] = dose: 100.0 mg/kg/injection, schedule: Q01DX001 (ip), vehicle: carboxymethylcellulose (CMC)
[8] = dose: 400.0 mg/kg/injection, schedule: Q01DX001 (ip), vehicle: carboxymethylcellulose (CMC)
[9] = dose: 200.0 mg/kg/injection, schedule: Q01DX001 (ip), vehicle: carboxymethylcellulose (CMC)

In the case of `C[n+]1c(-c2ccccc2)c2cc(N)ccc2c2ccccc21`, the T/C (dose: 0.5 mg/kg/injection, schedule: Q01DX Z (ip), vehicle: methylcellulose (MC)) is reported as 131 % of control, the T/C (dose: 0.8 mg/kg/injection, schedule: Q01DX Z (ip), vehicle: methylcellulose (MC)) is reported as 130 % of control and the T/C (dose: 4.0 mg/kg/injection, schedule: Q01DX Z (ip), vehicle: methylcellulose (MC)) is reported as 127 % of control. For the same compound, the T/C (dose: 4.4 mg/kg/injection, schedule: Q01DX Z (ip), vehicle: carboxymethylcellulose (CMC)) was 132 % of control, the T/C (dose: 6.0 mg/kg/injection, schedule: Q01DX Z (ip), vehicle: methylcellulose (MC)) was 129 % of control and the T/C (dose: 6.0 mg/kg/injection, schedule: Q01DX Z (ip), vehicle: saline) was 131 % of control. The T/C (dose: 6.6 mg/kg/injection, schedule: Q01DX Z (ip), vehicle: carboxymethylcellulose (CMC)) was 125 % of control, the T/C (dose: 10.0 mg/kg/injection, schedule: Q01DX Z (ip), vehicle: carboxymethylcellulose (CMC)) was 129 % of control and the T/C (dose: 12.0 mg/kg/injection, schedule: Q01DX Z (ip), vehicle: methylcellulose (MC)) was 127 % of control. For the same compound, the T/C (dose: 12.0 mg/kg/injection, schedule: Q01DX Z (ip), vehicle: saline) was 131 % of control, the T/C (dose: 15.0 mg/kg/injection, schedule: Q01DX Z (ip), vehicle: carboxymethylcellulose (CMC)) was 132 % of control and the T/C (dose: 16.0 mg/kg/injection, schedule: Q01DX Z (ip), vehicle: methylcellulose (MC)) was 126 and 127 % of control. The T/C (dose: 24.0 mg/kg/injection, schedule: Q01DX Z (ip), vehicle: saline) was 144 % of control, the survivor count (dose: 36.0 mg/kg/injection, schedule: Q01DX Z (ip), vehicle: saline) was 4 of 6 and the survivor count (dose: 54.0 mg/kg/injection, schedule: Q01DX Z (ip), vehicle: saline) was 1 of 6. For the same compound, the survivor count (dose: 75.0 mg/kg/injection, schedule: Q01DX001 (ip), vehicle: saline) was 0 of 6, the survivor count (dose: 81.0 mg/kg/injection, schedule: Q01DX Z (ip), vehicle: saline) was 0 of 6 and the survivor count (dose: 150.0 mg/kg/injection, schedule: Q01DX001 (ip), vehicle: saline) was 0 of 6. The survivor count (dose: 300.0 mg/kg/injection, schedule: Q01DX001 (ip), vehicle: saline) was 0 of 6.

In the case of `CC1C(C)(C)P(=O)(c2ccccc2)C1(C)C` (stereo not drawn), the survivor count [1] is reported as 3 of 4, the survivor count [2] is reported as 0 of 4 and the survivor count [3] is reported as 0 of 4.

With `[Cl][Sn]([Cl])([c]1ccccc1)[c]1ccccc1.c1ccncc1` the survivor count [4] was 1 of 3, the survivor count (dose: 200.0 mg/kg/injection, schedule: Q01DX009 (ip), vehicle: saline) was 0 of 6 and the survivor count (dose: 400.0 mg/kg/injection, schedule: Q01DX009 (ip), vehicle: saline) was 0 of 6.

For `Nc1nc(N)c(-c2ccc(Cl)c(Cl)c2)c(/C=C/C=C/c2cccnc2)n1`, the T/C (dose: 25.0 mg/kg/injection, schedule: Q01DX009 (ip), vehicle: saline with Tween-80) was 126 % of control.

For `O=C1CCC(N2C(=O)C3C4c5ccccc5C(c5ccccc54)C3C2=O)C(=O)N1` (stereo not drawn), the survivor count [5] was 3 of 3 and the survivor count [3] was 3 of 3.

With `C=CC(COC(C)=O)N1CC1` (stereo not drawn) (tested in a mixture with another compound) the T/C (dose: 15.0 mg/kg/injection, schedule: Q04DX003 (ip), vehicle: saline) was 126 % of control, the survivor count [1] was 1 of 6 and the survivor count [2] was 0 of 6. For the same compound, the survivor count [3] was 0 of 6.

For `COC(=O)C#CCCC#CC(C)=O`, the survivor count (dose: 150.0 mg/kg/injection, schedule: Q04DX002 (ip), vehicle: gum acacia) was 0 of 3 and the survivor count (dose: 300.0 mg/kg/injection, schedule: Q04DX002 (ip), vehicle: gum acacia) was 0 of 3.

For `Cc1nc(N)c([N+](=O)[O-])cc1[N+](=O)[O-]`, the survivor count (dose: 200.0 mg/kg/injection, schedule: Q01DX009 (ip), vehicle: acetone) was 5 of 6 and the survivor count (dose: 400.0 mg/kg/injection, schedule: Q01DX009 (ip), vehicle: acetone) was 0 of 6.

For `CC(=O)OC1CCC(C)(C2CCC3(C)C(C(C)CCCC(C)C)CCC3C2CC(=O)O)C(=O)C1` (stereo not drawn), the survivor count [6] was 6 of 6.

For `C=C(Br)CNC(=O)C(C)C`, the survivor count (dose: 100.0 mg/kg/injection, schedule: Q04DX003 (ip), vehicle: saline with Tween-80) was 0 of 6, the survivor count (dose: 200.0 mg/kg/injection, schedule: Q04DX003 (ip), vehicle: saline with Tween-80) was 0 of 6 and the survivor count [5] was 0 of 6.

With `O=C(O)/C=C/c1ccc(Cl)cc1Cl` the survivor count [6] was 3 of 6.

`CC(C#N)NCc1ccc2c(c1)OCO2` (stereo not drawn) was tested, and the survivor count [7] was 2 of 4 and the survivor count [8] was 0 of 4.

With `CCCC1=NNC(=O)C1(Br)Br` the survivor count [7] was 2 of 4, the survivor count [9] was 0 of 4 and the survivor count [8] was 0 of 4.

`CN(C)CN(C)C` was tested, and the survivor count (dose: 100.0 mg/kg/injection, schedule: Q01DX001 (ip), vehicle: saline) was 5 of 6 and the survivor count [4] was 6 of 6.

With `C[n+]1c(-c2cc(Cl)cc(Cl)c2)c2cc([N+](=O)[O-])ccc2c2ccccc21` the survivor count (dose: 400.0 mg/kg/injection, schedule: Q01DX009 (ip), vehicle: water) was 4 of 6.

In the case of `Nc1nc(=S)c2ncn(C3OC(CO)CC3O)c2[nH]1` (stereo not drawn), the T/C (dose: 5.0 mg/kg/injection, schedule: Q01DX009 (ip), vehicle: carboxymethylcellulose (CMC)) is reported as 130 % of control, the T/C (dose: 5.0 mg/kg/injection, schedule: Q01DX009 (ip), vehicle: other) is reported as 142 % of control and the T/C (dose: 10.0 mg/kg/injection, schedule: Q01DX009 (ip), vehicle: carboxymethylcellulose (CMC)) is reported as 136 % of control. The T/C (dose: 20.0 mg/kg/injection, schedule: Q01DX009 (ip), vehicle: carboxymethylcellulose (CMC)) was 145 % of control, the T/C (dose: 20.0 mg/kg/injection, schedule: Q01DX009 (ip), vehicle: other) was 137 % of control and the T/C (dose: 40.0 mg/kg/injection, schedule: Q01DX009 (ip), vehicle: carboxymethylcellulose (CMC)) was 145 % of control. The T/C (dose: 40.0 mg/kg/injection, schedule: Q01DX009 (ip), vehicle: other) was 137 % of control, the T/C (dose: 50.0 mg/kg/injection, schedule: Q01DX001 (ip), vehicle: carboxymethylcellulose (CMC)) was 148 % of control and the T/C (dose: 80.0 mg/kg/injection, schedule: Q01DX009 (ip), vehicle: carboxymethylcellulose (CMC)) was 130 % of control. For the same compound, the T/C [7] was 146 % of control, the T/C (dose: 133.0 mg/kg/injection, schedule: Q01DX001 (ip), vehicle: carboxymethylcellulose (CMC)) was 137 % of control and the T/C [9] was 140 % of control. The T/C (dose: 300.0 mg/kg/injection, schedule: Q01DX001 (ip), vehicle: carboxymethylcellulose (CMC)) was 146 % of control and the survivor count [8] was 4 of 4.

In the case of `ClC(Cl)[P+](N1CCCCC1)(N1CCCCC1)N1CCCCC1`, the survivor count (dose: 6.0 mg/kg/injection, schedule: Q04DX003 (ip), vehicle: Klucel (hydroxypropylcellulose) (HPC)) is reported as 3 of 6, the survivor count (dose: 12.0 mg/kg/injection, schedule: Q04DX003 (ip), vehicle: Klucel (hydroxypropylcellulose) (HPC)) is reported as 2 of 6 and the survivor count (dose: 12.5 mg/kg/injection, schedule: Q04DX002 (ip), vehicle: Klucel (hydroxypropylcellulose) (HPC)) is reported as 2 of 3. The survivor count (dose: 25.0 mg/kg/injection, schedule: Q04DX002 (ip), vehicle: Klucel (hydroxypropylcellulose) (HPC)) was 0 of 3, the survivor count (dose: 50.0 mg/kg/injection, schedule: Q04DX002 (ip), vehicle: Klucel (hydroxypropylcellulose) (HPC)) was 0 of 3 and the survivor count (dose: 100.0 mg/kg/injection, schedule: Q04DX002 (ip), vehicle: Klucel (hydroxypropylcellulose) (HPC)) was 0 of 3. The survivor count (dose: 200.0 mg/kg/injection, schedule: Q04DX002 (ip), vehicle: Klucel (hydroxypropylcellulose) (HPC)) was 0 of 3 and the survivor count (dose: 400.0 mg/kg/injection, schedule: Q04DX002 (ip), vehicle: Klucel (hydroxypropylcellulose) (HPC)) was 0 of 3.

With `O=C(O)c1ccc(N=Cc2ccc([N+](=O)[O-])s2)cc1` the survivor count (dose: 200.0 mg/kg/injection, schedule: Q04DX003 (ip), vehicle: Klucel (hydroxypropylcellulose) (HPC)) was 6 of 6 and the survivor count (dose: 400.0 mg/kg/injection, schedule: Q04DX003 (ip), vehicle: Klucel (hydroxypropylcellulose) (HPC)) was 2 of 6.

Reference: PubChem BioAssay AID248 (DTP/NCI, 2004)
